These results are taken from PubChem BioAssay AID2685 (National Center for Advancing Translational Sciences (NCATS), 2010).

This assay can be described thus: qHTS Assay for Lipid Storage Modulators in Drosophila S3 Cells.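 For cell number change: cells counted by Cell Tracker Red CMTPX staining in the red channel.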 To be noted: BODIPY lipid droplet fluorescence, 18-24 h; for cell number change: measured here: cell count max response, cells fed with added oleic acid. Summed up:
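Drosophila S3 cells got compounds at several concentrations plus oleic acid (400 uM solution). Laser-scanning cytometry with 488 nm excitation read lipid droplets at 500-530 nm and cells at 575-640 nm. Percent activity was relative to 20 uM Triacsin C.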
In general terms: qHTS replaces the single test concentration by a dilution series.

[1] abbreviates: measured here: cell number channel AC50, cells fed with added oleic acid.
The mark [2] stands for this setting: measured here: lipid fluorescence (Fed channel) AC50, cells fed with added oleic acid.

One may read the AC50 as the concentration giving half of the maximal activity seen.

The other results are listed elsewhere or left out. Further columns of the screen follow, without active or inactive calls. Compounds called inactive in the main read-out are mostly missing here. The note in brackets gives the kind of curve behind each potency; many fits are weak.

Turning to `COc1ccc(-c2cc(C(=O)N3CCCCCC3)c3ccccc3n2)cc1`, the cell number change came to 159%. Moreover, the half-maximal activity concentration (AC50) under setting [1] is 23.1 µM [rising, partial curve]. `Cc1ccc(C)c(Cn2cnc3c(cnn3C(C)(C)C)c2=O)c1`: the cell number change was -34.1%. Besides, under setting [1], the concentration at half-maximal activity (AC50) was 11.6 µM [falling, partial curve]. Besides, under setting [2], the AC50 was 0.411 µM [falling, full curve].

Turning to `CCOC(=O)c1cnc2ccc(OCC)cc2c1NCc1ccccc1`, the cell number change was -17.8%. The concentration at half-maximal activity (AC50) under setting [2] is 16.4 µM [falling, single point]. As for `CCCC1=Nc2cc(C(=O)N3CCC(C(=O)OCC)CC3)ccc2Sc2ccccc21`, the cell number change amounted to 12.2%. The AC50 under setting [2] was 6.51 µM [rising, single point]. For the molecule `Cc1cccc(NC(=O)C2CCCN2S(=O)(=O)c2ccc3c(c2)n(C)c(=O)c(=O)n3C)c1` (stereo not given), the cell number change came to 6.34%. Also, the concentration at half-maximal activity (AC50) under setting [2] is 29.1 µM [falling, single point].

As to `Cn1nnnc1SCC(=O)NC(=O)Cc1ccccc1`, the cell number change is -24.7%. Besides, under setting [2], the concentration at half-maximal activity (AC50) was 11.6 µM [falling, partial curve, poor fit]. Take `O=C(NC1CCCC1)C(c1cccnc1)N(Cc1ccc(F)cc1)C(=O)c1csnn1` (stereo not given): the cell number change was -35.2%. Further, the AC50 under setting [1] is 11.6 µM [falling, partial curve, poor fit]. Under setting [2], the AC50 was 6.51 µM [rising, single point]. Regarding `CCOC(=O)Cn1c(=O)n(Cc2ccco2)c(=O)c2ccc(C(=O)NC3CCCC3)cc21`, the cell number change is -0.659%.

As to `O=C(O)C1CCCCC1C(=O)NC1C2CC3CC(C2)CC1C3` (stereo not given), the cell number change stood at 6.08%. As to `C(=N\Nc1nn[nH]n1)/c1ccccc1`, the cell number change is 18.9%. Also, the half-maximal activity concentration (AC50) under setting [2] was 29.1 µM [rising, single point]. For the molecule `CCCOc1ccc(C(=O)CCC(=O)OCC(=O)N2CC(=O)Nc3ccccc32)cc1`, the cell number change is -30%. Further, the half-maximal activity concentration (AC50) under setting [2] was 29.1 µM [rising, single point]. As to `CCN(CC(=O)Nc1ccccc1C(F)(F)F)C(=O)c1oc2ccc(OC)cc2c1C`, the cell number change was 21.2%.

Regarding `Cc1cc(C)cc(N(CC(=O)NC(C)C)C(=O)CCC(=O)Nc2ccccn2)c1`, the cell number change is 7.61%. In addition, the half-maximal activity concentration (AC50) under setting [2] was 11.6 µM [rising, partial curve]. On to `C/C(=N/NC(=O)c1cccc(Br)c1)C1CC2CCC1C2` (stereo not given), for which the cell number change stood at 18.8%. Consider `Cc1cc(C)n(CC(O)COc2ccccc2C(=O)Nc2ccccc2)n1` (stereo not given), for which the cell number change is -18%. Further, the AC50 under setting [2] was 5.8 µM [rising, single point]. For the molecule `COc1cc(OC)c(NC(=O)c2cccc(F)c2)cc1Cl`, the cell number change is 10.1%. Under setting [2], the AC50 was 0.206 µM [rising, full curve].

Turning to `Cc1nnc(C)n1/N=C/c1ccccn1`, the cell number change is -26.3%. Moreover, under setting [1], the half-maximal activity concentration (AC50) is 0.326 µM [falling, full curve, poor fit]. Moreover, under setting [2], the AC50 was 1.03 µM [falling, full curve].

Take `O=C(C1=C[C@H](c2ccccc2)C[C@H](OCCCCO)O1)N1CCN(Cc2ccccc2)CC1`: the cell number change is -8.32%. For the same molecule, the AC50 under setting [2] was 0.82 µM [falling, full curve, poor fit].
